Source: publication PMC7473711, “Characterization of the different oligomeric states of the DAN family antagonists SOSTDC1 and SOST” (Biochemical Journal, 2020)
Results are given in words; binding and its absence hold for the method and conditions named.

Protein sequences, listed by entry. Tags and fused reporters are not part of them. Residues count along the entry.
UniProt Q9BQB4, residues 24-213: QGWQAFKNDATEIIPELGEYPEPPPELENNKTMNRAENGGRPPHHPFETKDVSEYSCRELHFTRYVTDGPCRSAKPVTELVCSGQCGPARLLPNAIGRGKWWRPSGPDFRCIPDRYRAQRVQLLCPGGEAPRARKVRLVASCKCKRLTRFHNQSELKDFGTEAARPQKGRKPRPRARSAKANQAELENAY

What was measured:
[1] = target: human SOST, deglycosylated (human) (UniProt Q9BQB4); experiment: AUC; sedimentation velocity, 48,000 rpm, 20°C, 20 mM HEPES, 150 mM NaCl, pH 7.5; cSOSTDC1 at 500 µg/ml; c(s) and c(M) analysis in SEDFIT; both purified
[2] = target: human SOST, glycosylated (human) (UniProt Q9BQB4); experiment: SEC; SEC of hSOST, Superdex S200 10/300, 20 mM HEPES, 1 M NaCl, 1 mM EDTA, pH 7.5 (final step of purification, Figure 6B); both purified
[3] = target: human SOST, glycosylated (human) (UniProt Q9BQB4); experiment: AUC; sedimentation velocity, 48,000 rpm, 20°C, 20 mM HEPES, 150 mM NaCl, pH 7.5; cSOSTDC1 at 500 µg/ml; c(s) and c(M) analysis in SEDFIT; both purified
[4] = target: human SOST, glycosylated (human) (UniProt Q9BQB4); experiment: cross-linking; 4 µg purified protein, 0.01% (v/v) glutaraldehyde, 20 min, room temperature, 20 mM HEPES, 150 mM NaCl, pH 7.5; non-reducing SDS-PAGE; self-association; both purified

Row | binding [1] | binding [2] | binding [3] | binding [4] | Substance
1 | no binding |  |  |  | human SOST, deglycosylated (from UniProt Q9BQB4 24-213)
2 |  | no binding | no binding | no binding | human SOST, glycosylated (from UniProt Q9BQB4 24-213)
